Test [1] addresses Human lamin C (66-230), Gal4 DNA-binding domain fusion from pGBKT7-Lam (human) (UniProt P02545). The test is described as follows: two-hybrid.
Test [2] concerns the target T1, Mycobacterium tuberculosis SigF (Rv3286c), Gal4 DNA-binding domain fusion from pGB3286c (M. tuberculosis) (UniProt P9WGI3).
T1 sequence: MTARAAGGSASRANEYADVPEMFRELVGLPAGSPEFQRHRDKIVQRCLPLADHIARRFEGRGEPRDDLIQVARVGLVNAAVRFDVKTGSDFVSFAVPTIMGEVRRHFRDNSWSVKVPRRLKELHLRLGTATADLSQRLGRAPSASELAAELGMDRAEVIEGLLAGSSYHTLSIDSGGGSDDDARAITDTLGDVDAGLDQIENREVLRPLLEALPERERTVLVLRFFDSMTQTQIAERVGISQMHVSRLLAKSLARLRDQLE
The test is described as follows: two-hybrid.

Chains of the proteins cited; added tags and fusions are not shown. Residues count along the entry.
UniProt P02545, residues 66-230: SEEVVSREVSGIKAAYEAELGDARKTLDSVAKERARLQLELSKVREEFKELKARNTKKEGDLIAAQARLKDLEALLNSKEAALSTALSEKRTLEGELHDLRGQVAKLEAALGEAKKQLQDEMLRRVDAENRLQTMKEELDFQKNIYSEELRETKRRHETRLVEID
UniProt P03070, residues 84-708: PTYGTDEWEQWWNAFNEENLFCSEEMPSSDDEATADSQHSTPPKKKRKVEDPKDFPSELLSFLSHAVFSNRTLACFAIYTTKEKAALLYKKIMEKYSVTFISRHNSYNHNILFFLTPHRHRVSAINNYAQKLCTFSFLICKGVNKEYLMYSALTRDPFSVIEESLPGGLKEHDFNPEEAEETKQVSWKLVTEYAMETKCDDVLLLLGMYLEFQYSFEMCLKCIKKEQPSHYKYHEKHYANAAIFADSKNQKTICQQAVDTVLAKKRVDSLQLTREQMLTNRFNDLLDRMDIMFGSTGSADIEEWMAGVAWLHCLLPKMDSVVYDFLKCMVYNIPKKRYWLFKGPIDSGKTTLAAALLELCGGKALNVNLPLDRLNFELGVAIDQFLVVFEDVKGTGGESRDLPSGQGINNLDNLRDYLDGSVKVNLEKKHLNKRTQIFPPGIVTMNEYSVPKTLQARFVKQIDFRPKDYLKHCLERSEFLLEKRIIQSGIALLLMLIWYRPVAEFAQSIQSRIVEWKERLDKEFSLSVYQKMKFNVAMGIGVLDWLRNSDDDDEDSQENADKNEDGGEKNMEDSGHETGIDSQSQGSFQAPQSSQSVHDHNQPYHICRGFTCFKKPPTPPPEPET

The results in this text go back to article PMC3056739.

No constants are given. Whether binding was seen depends on the method and setting. Some results given as binding are weak or reduced against the parent protein; the word gives no strength. For some assays here: Where a sequence is shown, tags or fusion partners need not be part of it.

As to “SV40 large T-antigen (84-708), Gal4 activation domain fusion from pGADT7-T (from UniProt P03070 84-708) (domain or fragment)”, in test [1], the binding result was “no binding”.

B1: Mycobacterium tuberculosis UsfX (Rv3287c), Gal4 activation domain fusion from pGA3287c (protein, UniProt P9WGX7 1-168)
chain: MTDQLEDQTQGGSTVDRSLPGGCMADSDLPTKGRQRGVRAVELNVAARLENLALLRTLVGAIGTFEDLDFDAVADLRLAVDEVCTRLIRSALPDATLRLVVDPRKDEVVVEASAACDTHDVVAPGSFSWHVLTALADDVQTFHDGRQPDVAGSVFGITLTARRAASSR
On to B1, for which the binding entry in test [2] is reported as “binds”.
